5 sequences from article PMC12884786, “Evolution of Multivalent Aptamer Corona for High‐Throughput Multiplexed Detection of Multiple Cancers” can be followed below.

Amino acid sequences for entries named in this document (tags omitted). A change or cut given only in a name is not applied to a line headed by its entry.
UniProt P02751: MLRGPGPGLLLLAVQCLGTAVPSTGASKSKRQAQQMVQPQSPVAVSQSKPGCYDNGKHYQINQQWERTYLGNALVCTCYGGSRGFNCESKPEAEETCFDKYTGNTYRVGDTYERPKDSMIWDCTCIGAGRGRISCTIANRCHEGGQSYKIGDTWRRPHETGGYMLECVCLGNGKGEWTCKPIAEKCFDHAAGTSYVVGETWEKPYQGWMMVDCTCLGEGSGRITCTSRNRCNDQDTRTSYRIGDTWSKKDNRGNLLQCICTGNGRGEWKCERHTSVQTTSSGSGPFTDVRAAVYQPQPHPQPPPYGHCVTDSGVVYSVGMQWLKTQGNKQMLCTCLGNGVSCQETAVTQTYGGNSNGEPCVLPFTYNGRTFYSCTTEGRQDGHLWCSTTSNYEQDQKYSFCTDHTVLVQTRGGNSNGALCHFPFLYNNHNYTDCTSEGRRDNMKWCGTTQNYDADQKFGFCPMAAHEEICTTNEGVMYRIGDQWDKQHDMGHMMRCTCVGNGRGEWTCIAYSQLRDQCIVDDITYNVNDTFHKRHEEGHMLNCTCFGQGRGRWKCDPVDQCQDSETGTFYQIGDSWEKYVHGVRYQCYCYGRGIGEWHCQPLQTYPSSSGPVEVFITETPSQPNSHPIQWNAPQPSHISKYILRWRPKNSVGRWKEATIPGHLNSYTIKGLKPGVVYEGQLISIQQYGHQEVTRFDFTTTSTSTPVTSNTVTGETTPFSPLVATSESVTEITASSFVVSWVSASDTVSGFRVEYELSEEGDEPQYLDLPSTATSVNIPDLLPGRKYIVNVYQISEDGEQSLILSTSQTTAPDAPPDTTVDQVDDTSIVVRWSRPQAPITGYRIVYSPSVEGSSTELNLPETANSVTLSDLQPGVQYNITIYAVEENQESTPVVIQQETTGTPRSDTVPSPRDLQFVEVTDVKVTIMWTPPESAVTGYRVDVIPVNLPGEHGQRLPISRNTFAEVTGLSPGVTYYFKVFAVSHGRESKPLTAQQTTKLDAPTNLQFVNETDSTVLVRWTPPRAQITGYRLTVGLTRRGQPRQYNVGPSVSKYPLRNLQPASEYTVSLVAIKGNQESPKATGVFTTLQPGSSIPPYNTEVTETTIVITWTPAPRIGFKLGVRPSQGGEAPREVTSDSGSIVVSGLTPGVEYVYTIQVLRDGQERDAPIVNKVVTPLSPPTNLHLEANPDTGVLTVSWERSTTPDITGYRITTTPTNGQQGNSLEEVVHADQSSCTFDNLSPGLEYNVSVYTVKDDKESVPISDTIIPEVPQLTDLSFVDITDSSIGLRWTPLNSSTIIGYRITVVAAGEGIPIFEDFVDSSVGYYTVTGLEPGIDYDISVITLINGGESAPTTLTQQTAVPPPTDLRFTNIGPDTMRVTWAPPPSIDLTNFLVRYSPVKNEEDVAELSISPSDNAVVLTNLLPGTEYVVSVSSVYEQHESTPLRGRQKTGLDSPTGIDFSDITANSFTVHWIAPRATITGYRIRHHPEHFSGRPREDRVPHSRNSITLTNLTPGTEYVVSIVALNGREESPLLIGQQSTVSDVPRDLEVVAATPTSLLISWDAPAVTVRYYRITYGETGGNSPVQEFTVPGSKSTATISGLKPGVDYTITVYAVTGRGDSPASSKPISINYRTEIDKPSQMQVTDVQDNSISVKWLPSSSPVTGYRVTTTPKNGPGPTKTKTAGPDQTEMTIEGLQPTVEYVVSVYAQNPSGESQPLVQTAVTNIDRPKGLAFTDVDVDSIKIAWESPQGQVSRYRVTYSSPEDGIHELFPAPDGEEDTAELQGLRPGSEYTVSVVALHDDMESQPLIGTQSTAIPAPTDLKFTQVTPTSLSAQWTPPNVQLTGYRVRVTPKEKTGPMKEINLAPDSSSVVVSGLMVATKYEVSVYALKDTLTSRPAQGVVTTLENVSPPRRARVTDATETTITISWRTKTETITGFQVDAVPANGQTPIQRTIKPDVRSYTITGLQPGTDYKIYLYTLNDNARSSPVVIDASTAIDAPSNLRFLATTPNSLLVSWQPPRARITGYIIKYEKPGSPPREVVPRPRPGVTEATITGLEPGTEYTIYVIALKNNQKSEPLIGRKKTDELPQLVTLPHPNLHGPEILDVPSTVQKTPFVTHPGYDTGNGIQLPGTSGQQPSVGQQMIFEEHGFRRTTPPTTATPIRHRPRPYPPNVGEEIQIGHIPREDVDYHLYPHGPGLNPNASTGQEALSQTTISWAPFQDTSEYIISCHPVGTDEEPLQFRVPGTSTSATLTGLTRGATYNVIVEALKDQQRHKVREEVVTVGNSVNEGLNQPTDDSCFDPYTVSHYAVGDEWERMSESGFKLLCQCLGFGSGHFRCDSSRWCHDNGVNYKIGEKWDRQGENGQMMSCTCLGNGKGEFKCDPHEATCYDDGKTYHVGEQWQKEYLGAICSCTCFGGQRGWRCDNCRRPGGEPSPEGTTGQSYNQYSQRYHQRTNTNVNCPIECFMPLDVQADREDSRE
UniProt P02675: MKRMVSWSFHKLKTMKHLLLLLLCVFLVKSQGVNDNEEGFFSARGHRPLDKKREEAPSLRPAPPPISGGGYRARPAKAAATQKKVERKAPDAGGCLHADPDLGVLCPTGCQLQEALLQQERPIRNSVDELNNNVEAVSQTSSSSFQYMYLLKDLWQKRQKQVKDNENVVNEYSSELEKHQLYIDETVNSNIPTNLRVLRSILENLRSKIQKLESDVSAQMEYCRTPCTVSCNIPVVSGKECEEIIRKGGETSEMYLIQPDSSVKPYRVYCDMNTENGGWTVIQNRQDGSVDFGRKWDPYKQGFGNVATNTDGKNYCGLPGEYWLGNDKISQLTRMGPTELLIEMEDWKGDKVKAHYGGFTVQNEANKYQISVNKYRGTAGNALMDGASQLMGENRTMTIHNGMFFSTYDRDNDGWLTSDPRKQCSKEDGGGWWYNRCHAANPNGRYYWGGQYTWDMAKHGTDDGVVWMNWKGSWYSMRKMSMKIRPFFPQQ
UniProt P02671: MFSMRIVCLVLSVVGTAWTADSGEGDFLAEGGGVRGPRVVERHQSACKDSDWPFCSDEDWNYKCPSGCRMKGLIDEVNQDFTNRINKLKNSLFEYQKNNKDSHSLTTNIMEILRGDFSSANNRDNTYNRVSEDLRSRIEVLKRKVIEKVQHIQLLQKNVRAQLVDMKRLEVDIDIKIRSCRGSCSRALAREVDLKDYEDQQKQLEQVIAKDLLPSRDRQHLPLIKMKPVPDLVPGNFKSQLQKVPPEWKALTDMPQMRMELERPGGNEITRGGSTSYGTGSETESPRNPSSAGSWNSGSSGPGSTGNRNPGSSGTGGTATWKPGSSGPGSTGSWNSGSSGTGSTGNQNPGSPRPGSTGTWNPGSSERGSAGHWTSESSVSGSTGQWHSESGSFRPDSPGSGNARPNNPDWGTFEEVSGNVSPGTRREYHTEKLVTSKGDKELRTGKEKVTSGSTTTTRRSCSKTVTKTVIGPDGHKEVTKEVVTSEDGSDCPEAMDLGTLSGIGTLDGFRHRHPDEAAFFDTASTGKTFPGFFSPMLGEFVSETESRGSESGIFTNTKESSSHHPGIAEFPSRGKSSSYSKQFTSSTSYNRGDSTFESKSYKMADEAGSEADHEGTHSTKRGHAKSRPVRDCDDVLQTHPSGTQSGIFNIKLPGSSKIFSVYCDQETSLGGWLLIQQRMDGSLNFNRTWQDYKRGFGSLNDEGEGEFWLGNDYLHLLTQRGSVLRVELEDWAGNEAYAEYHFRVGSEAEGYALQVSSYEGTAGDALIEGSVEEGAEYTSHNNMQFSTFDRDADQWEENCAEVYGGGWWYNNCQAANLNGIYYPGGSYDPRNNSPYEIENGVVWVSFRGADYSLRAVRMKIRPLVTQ
UniProt P07358: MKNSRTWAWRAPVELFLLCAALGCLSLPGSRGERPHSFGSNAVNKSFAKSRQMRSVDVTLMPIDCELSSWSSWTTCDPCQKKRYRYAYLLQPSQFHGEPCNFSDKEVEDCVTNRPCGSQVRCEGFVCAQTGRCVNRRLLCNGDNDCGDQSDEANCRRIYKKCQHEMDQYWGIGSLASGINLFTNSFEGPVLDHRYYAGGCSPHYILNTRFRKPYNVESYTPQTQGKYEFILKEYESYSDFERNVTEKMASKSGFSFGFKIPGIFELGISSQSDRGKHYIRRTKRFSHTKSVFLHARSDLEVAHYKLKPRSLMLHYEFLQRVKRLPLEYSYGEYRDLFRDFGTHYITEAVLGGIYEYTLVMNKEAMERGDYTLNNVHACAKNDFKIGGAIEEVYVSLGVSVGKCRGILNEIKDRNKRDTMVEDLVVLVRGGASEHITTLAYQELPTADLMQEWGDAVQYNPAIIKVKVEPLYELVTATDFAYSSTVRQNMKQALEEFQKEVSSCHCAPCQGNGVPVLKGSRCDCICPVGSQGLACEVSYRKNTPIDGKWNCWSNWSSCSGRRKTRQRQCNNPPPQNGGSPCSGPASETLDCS
UniProt P0C0L5: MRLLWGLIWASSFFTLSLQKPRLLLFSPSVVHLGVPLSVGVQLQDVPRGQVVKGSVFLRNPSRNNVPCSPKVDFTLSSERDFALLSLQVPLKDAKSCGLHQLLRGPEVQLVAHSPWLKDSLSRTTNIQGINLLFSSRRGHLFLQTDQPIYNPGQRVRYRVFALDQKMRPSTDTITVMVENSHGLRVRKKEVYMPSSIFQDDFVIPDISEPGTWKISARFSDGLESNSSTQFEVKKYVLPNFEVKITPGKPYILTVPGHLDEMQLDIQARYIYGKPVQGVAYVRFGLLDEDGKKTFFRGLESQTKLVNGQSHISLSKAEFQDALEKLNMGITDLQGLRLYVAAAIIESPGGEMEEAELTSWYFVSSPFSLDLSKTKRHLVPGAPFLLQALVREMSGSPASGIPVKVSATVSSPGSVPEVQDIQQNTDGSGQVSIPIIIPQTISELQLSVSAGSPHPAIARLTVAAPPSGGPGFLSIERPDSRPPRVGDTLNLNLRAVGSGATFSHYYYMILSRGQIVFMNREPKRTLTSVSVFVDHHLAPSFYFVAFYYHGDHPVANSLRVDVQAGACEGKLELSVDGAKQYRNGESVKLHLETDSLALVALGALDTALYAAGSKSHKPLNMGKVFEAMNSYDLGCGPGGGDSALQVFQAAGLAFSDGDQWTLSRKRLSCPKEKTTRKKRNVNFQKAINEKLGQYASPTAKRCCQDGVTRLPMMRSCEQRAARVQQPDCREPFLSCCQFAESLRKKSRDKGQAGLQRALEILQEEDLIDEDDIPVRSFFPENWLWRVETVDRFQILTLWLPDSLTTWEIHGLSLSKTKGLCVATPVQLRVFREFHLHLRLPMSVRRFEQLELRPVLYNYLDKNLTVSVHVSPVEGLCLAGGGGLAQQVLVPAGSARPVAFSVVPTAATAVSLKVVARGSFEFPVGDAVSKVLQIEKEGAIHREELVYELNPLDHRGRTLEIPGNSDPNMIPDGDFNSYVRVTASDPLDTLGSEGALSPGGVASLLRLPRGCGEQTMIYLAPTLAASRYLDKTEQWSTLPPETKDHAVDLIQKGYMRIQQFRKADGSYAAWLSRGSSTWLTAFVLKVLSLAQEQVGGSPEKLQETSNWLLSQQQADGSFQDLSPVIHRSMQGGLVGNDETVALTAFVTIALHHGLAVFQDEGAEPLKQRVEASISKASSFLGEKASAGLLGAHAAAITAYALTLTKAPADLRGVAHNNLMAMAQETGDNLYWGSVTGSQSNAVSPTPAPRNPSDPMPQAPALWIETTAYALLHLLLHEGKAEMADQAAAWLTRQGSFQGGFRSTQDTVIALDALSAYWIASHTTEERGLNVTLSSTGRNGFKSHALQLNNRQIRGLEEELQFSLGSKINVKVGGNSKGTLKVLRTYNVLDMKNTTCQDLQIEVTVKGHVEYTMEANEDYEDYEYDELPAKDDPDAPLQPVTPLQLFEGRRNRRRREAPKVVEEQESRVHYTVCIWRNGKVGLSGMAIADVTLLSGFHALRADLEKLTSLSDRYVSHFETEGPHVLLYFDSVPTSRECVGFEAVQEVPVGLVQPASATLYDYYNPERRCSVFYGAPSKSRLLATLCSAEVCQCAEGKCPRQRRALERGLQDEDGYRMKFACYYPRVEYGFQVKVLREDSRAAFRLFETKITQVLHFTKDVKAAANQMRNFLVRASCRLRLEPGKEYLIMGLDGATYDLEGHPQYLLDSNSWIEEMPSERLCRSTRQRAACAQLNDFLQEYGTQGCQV

Construct, isoform or probe ends are uncertain for at least one entry.

Common to all, as to assay: SPR
Common to all, as to settings: 5 mM Mg2+; SPR (Biacore 8K, CM5 chip, protein immobilized): DPBS with 5 mM Mg2+, 25 C; aptamer 0-1000 nM; pH not stated; commercial protein; single-stranded …
(In SPR one partner is held on a chip, and binding of the other changes the refractive index at the surface.)

Data set [1] deals with fibronectin (human) (UniProt P02751).
Data set [2] deals with fibrinogen beta chain (human) (UniProt P02675).
Data set [3] deals with fibrinogen alpha chain (human) (UniProt P02671).
Data set [4] has as its target complement component C8 beta chain (human) (UniProt P07358).
Data set [5] addresses complement C4 (human) (UniProt P0C0L5).

Take “CAGCACCGTCAACTGAATCAGAAATTCGGCCGAATAGTCACGTACCGGGTGATGCGATGGAGATGT [LC1]”: the binding result in data set [1] was “binds”.
Regarding “CAGCACCGTCAACTGAATTGGGAGGGGGGGTTGGGTAGTTGCGCGGACGTGATGCGATGGAGATGT [OV7]”, the binding result in data set [2] is “binds”.
For “CAGCACCGTCAACTGAATCGGCTAGGGACGAAGGGTCCGTTATAATGGTGATGCGATGGAGATGT [LC3]”, in data set [3], the binding result is “binds”.
With “CAGCACCGTCAACTGAATGTGGGTGGGCGGGTGGATGTTGACCTCCTGGTGATGCGATGGAGATGT [CRC9]”, the binding result in data set [4] was “binds”.
As for “CAGCACCGTCAACTGAATGGAGCCGTGGGTGGGTGGGTGGTTGCTGCCGTGATGCGATGGAGATGT [CRC8]”, the binding result in data set [5] was “binds”.
